Measurements taken from publication doi:10.1101/2025.03.03.641251.

Sequences of proteins named here, by UniProt entry; tags and fusion partners are left off. Residues count along the entry.
UniProt P39060, residues 24-1754: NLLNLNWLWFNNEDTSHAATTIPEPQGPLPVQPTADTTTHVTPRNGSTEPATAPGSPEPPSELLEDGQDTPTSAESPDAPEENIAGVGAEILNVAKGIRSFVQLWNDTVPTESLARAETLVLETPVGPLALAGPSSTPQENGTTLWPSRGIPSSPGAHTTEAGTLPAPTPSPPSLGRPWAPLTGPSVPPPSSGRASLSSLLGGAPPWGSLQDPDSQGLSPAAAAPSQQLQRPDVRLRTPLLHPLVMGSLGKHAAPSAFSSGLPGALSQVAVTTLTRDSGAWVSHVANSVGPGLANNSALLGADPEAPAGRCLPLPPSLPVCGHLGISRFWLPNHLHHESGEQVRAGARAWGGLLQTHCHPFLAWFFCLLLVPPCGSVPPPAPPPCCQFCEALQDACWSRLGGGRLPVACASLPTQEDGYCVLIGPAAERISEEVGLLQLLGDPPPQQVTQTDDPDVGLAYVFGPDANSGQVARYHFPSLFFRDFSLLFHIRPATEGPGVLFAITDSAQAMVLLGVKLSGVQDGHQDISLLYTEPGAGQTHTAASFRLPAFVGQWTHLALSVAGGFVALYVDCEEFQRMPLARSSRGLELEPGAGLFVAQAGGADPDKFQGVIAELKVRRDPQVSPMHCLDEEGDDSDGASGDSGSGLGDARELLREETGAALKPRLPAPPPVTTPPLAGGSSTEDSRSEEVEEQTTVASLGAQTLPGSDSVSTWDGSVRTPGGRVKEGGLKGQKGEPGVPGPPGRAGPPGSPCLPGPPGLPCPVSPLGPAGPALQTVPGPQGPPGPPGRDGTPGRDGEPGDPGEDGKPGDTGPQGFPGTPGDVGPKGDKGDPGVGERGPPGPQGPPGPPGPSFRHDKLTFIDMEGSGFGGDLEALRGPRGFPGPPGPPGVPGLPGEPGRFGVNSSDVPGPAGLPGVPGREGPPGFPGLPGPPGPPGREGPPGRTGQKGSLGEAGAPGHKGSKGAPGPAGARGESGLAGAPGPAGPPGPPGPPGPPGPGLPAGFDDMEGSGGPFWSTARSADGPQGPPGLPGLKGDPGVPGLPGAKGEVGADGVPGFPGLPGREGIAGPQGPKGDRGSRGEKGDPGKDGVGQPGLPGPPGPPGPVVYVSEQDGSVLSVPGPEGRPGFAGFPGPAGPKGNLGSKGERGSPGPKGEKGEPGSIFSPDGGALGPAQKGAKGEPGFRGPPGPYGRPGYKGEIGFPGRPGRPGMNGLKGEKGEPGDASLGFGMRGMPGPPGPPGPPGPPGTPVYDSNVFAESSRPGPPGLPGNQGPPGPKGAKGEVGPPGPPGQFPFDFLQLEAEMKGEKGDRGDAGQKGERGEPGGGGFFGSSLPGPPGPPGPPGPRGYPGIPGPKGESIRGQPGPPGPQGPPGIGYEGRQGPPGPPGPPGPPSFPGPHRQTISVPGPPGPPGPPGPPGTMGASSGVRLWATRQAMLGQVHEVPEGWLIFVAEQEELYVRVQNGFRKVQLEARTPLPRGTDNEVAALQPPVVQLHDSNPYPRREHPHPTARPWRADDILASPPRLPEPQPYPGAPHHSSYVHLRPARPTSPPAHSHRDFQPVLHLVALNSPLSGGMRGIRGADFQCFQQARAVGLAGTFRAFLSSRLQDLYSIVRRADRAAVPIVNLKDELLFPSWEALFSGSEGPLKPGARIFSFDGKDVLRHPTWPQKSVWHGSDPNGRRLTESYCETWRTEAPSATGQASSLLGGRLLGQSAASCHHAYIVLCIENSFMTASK

Tests used:
[1] = biological target: T1, SPINK1-UltraID (human) (UniProt P00995); assay: proximity labelling
T1 sequence: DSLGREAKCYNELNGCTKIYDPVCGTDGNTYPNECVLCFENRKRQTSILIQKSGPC

[2] = biological target: T1, SPINK1-UltraID (human); assay: proximity labelling; remark: listed apart in the source

binding [1]: binds
binding [2]: binds
Substance: COL18A1 (from UniProt P39060 24-1754)

Where two headings read alike, the source gives them in different places. No constants are given. Whether binding was seen depends on the method and setting. Binding seen in cells or lysates may run through a third protein. A yes stands for co-enrichment or nearness to the bait. Other partners may have been found.
